These are yes or no findings as the source states them, for the method shown. In cells and extracts the contact can be indirect. These calls come from enrichment with a bait or labelling near it, and not all partners need be listed.
Molecular target: Flag-JAK1 (Janus kinase 1) (human) (UniProt P23458)
Test: affinity purification with mass spectrometry; Flag-JAK1 plasmid transfected into HEK293T cells with or without KRT6A plasmid; MG132 (50 uM) 4 h; NP-40 lysis buffer; anti-Flag magnetic beads 2 h; washes in 25 mM Tris pH 8.0, 150 mM NaCl, 0.2% NP40; Q Exactive mass spectrometry

Chains of the proteins cited; added tags and fusions are not shown.
UniProt P23458: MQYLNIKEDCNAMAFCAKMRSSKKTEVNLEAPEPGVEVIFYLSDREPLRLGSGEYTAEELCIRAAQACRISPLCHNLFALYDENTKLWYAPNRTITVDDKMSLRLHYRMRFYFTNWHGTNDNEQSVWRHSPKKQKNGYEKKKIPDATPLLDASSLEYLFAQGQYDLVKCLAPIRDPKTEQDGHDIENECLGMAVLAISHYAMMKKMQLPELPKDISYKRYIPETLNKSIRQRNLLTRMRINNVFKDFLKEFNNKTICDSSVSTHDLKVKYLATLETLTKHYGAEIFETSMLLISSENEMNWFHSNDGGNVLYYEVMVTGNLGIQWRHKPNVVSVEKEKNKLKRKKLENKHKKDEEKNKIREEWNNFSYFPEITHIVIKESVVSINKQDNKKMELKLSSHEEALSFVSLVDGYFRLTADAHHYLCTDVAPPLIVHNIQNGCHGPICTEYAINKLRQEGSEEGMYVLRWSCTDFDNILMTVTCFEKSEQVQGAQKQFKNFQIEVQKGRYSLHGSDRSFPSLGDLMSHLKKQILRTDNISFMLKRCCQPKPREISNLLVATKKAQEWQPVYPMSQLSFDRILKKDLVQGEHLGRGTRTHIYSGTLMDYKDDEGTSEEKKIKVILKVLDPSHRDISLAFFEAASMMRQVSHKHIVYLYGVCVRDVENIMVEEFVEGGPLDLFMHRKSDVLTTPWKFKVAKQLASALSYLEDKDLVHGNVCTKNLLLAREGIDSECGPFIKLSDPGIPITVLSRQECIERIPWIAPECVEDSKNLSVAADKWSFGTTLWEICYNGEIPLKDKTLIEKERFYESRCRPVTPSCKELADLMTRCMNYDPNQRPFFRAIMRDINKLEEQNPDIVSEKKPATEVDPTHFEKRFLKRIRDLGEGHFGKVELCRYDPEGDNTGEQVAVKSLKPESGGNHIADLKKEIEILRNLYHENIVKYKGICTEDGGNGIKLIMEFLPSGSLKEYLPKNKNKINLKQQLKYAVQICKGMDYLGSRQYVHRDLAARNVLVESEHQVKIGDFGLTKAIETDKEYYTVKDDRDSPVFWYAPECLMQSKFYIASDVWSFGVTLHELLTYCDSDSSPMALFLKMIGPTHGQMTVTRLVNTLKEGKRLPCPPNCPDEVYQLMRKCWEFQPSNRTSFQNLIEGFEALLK

B1: RNF41, endogenous (hit of the JAK1 IP-MS) (enzyme, UniProt Q9H4P4 1-317)
chain: MGYDVTRFQGDVDEDLICPICSGVLEEPVQAPHCEHAFCNACITQWFSQQQTCPVDRSVVTVAHLRPVPRIMRNMLSKLQIACDNAVFGCSAVVRLDNLMSHLSDCEHNPKRPVTCEQGCGLEMPKDELPNHNCIKHLRSVVQQQQTRIAELEKTSAEHKHQLAEQKRDIQLLKAYMRAIRSVNPNLQNLEETIEYNEILEWVNSLQPARVTRWGGMISTPDAVLQAVIKRSLVESGCPASIVNELIENAHERSWPQGLATLETRQMNRRYYENYVAKRIPGKQAVVVMACENQHMGDDMVQEPGLVMIFAHGVEEI
binding: binds

— PMC12065298
